Not every detail of the peptide structures is certain; ends, links or a residue may be inferred. Residues, ends and D or L forms follow the SMILES beside them.
System: human peripheral blood leukocytes
Assay: Measurement of phagocytosis activity (fluorescence-labeled latex beads, flow cytometry)
Type: cell-based
Conditions: rate based on the control (only PBS)
Method: To human peripheral blood was added physiological saline containing phosphate buffer (PBS), and the resulting mixture was centrifuged at 1000 rpm for 5 minutes to wash blood cells. Then, the blood cells were suspended in PBS to prepare a suspension having a density of 4 x 10^6 cells/ml. To 100 µl of the suspension was added 10 µl of a solution of a peptide in PBS, followed by incubation at 37°C for 10 minutes. Then, 10 µl of a suspension of 4 x 10^8/ml fluorescence-labeled latex beads opsonized with human peripheral blood was added thereto, and the resulting mixture was incubated for 5 minutes. To the mixture was added PBS containing ethylenediaminetetraacetic acid (EDTA) to stop the reaction. The resulting mixture was centrifuged to separate blood cells, and an ammonium chloride hemolyzing agent was added thereto for hemolysis to obtain leukocytes. After the obtained leukocytes were suspended in PBS containing EDTA, the resulting suspension was subjected to flow cytometry, and the number of cells which phagocytosed latex beads was calculated.
The results are expressed in terms of the rate based on the control (containing only PBS).

For `CC[C@H](C)[C@H](NC(=O)[C@@H](N)CCSC)C(=O)N[C@H](C(=O)N[C@@H](CC(C)C)C(=O)O)[C@@H](C)O` [MITL, Met-Ile-Thr-Leu, reference compound] (H-MITL-OH), the Phagocytosis activity (Concentration 3 µM) was 1.34 ± 0.05, the Phagocytosis activity (Concentration 10 µM) was 1.60 ± 0.06 and the Phagocytosis activity (Concentration 30 µM) was 2.34 ± 0.46.

Source: EP1132396A1, “PHYSIOLOGICALLY ACTIVE PEPTIDES” (KYOWA HAKKO KOGYO CO., LTD., priority 1998, dated 2000)
